PubChem BioAssay AID602196 – INSERM | 2012

Aim: 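Knock-downs that protect lung cancer cells from cisplatin or sensitise them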
Cells: human A549 lung cancer cells
Knock-down reagent: siRNA pair against human genes
Timing: 48 h transfection before cisplatin; time from cisplatin to read-out not stated
Conditions: cisplatin at a dose killing half of control-siRNA cells; exact dose and duration not given
Read-out: 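Cisplatin cell death as a shift from the 50% death seen with control siRNA; siRNAs toxic or growth-blocking alone scored 0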
Reading the numbers: two-siRNA summed score (-2 to +2): higher = both siRNAs protect from cisplatin killing; -2 means both sensitise
Rule for the call: 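Each siRNA scores 0 if harmful alone by LDH or WST-1, otherwise +1 if it reduces and -1 if it increases cisplatin killing; a gene is active when both siRNAs agree (sum +2 or -2)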
Calls: active = both siRNAs shift cisplatin killing the same way; inactive = no consistent shift, or siRNA harmful alone
The deposit covers about 23,000 reagents; shown is a random part of them. 455 of all reagents (2%) were called active. 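Active includes both protection and sensitisation; some change values fall well beyond the stated -50 to +50 range.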 Not all columns of the deposit are shown. Reagent sequences are not shown. Not given: the amount of reagent.

gene | two-siRNA summed score (-2 to +2) | Call
MARK2 (microtubule affinity regulating kinase 2) | 0 | inactive
ELP5 (elongator acetyltransferase complex subunit 5) | 0 | inactive
LRFN1 | 0 | inactive
LOC388635 | 0 | inactive
AKAP9 (A-kinase anchoring protein 9) | 0 | inactive
PITX3 (paired like homeodomain 3) | -1 | inactive
SLC35A2 | 0 | inactive
LOC389910 | 0 | inactive
OR1A1 (olfactory receptor family 1 subfamily A member 1) | 0 | inactive
MOGS (mannosyl-oligosaccharide glucosidase) | -1 | inactive
ARRDC2 (arrestin domain containing 2) | 0 | inactive
LRCH3 | 0 | inactive
SLC22A13 | 1 | inactive
MT4 (metallothionein 4) | 0 | inactive
SHQ1 (SHQ1, H/ACA ribonucleoprotein assembly factor) | 1 | inactive
GP9 (glycoprotein IX platelet) | 0 | inactive
RGS2 (regulator of G protein signaling 2) | -1 | inactive
ROS1 (ROS proto-oncogene 1, receptor tyrosine kinase) | 1 | inactive
CBX2 (chromobox 2) | 1 | inactive
RPLP1 (ribosomal protein lateral stalk subunit P1) | 0 | inactive
IFNA13 (interferon alpha 13) | -1 | inactive
HLA-DRB3 (major histocompatibility complex, class II, DR beta 3) | 0 | inactive
IFT22 (intraflagellar transport 22) | 0 | inactive
NDUFB8 (NADH:ubiquinone oxidoreductase subunit B8) | 0 | inactive
WNT10A (Wnt family member 10A) | 1 | inactive
KRTAP22-1 (keratin associated protein 22-1) | 0 | inactive
ZNF441 (zinc finger protein 441) | 1 | inactive
ZNF687 (zinc finger protein 687) | -1 | inactive
LOC389243 | 0 | inactive
MAPK11 (mitogen-activated protein kinase 11) | 1 | inactive
PCID2 (PCI domain containing 2) | 0 | inactive
SH3GL1 (SH3 domain containing GRB2 like 1, endophilin A2) | 0 | inactive
LOC442646 | 0 | inactive
EPHA10 (EPH receptor A10) | -1 | inactive
LGALS12 (galectin 12) | 0 | inactive
LOC388295 | 0 | inactive
PHYH (phytanoyl-CoA 2-hydroxylase) | 0 | inactive
PSKH2 (protein serine kinase H2) | 1 | inactive
POU2F2 (POU class 2 homeobox 2) | -1 | inactive
